The values that follow come from article PMC9229493, “Talaromarins A–F: Six New Isocoumarins from Mangrove-Derived Fungus Talaromyces flavus TGGP35” (Marine Drugs, 2022).

≈ marks a conversion by molar mass, not a printed value.

What all share (assay): Antibacterial activity, microplate assay
Format in all cases: cell-based

Experiment [1] relates to Staphylococcus aureus (ATCC 25923). Conditions: ATCC25923, S. aureus.
The test system of experiment [2] is Escherichia coli (ATCC 25922). Conditions: ATCC25922, E. coli.
The test system of experiment [3] is Pseudomonas aeruginosa (ATCC 17749). Conditions: ATCC17749, P. aeruginosa.

For the molecule `O=C(O)c1cn(C2CC2)c2cc(N3CCNCC3)c(F)cc2c1=O` [ciprofloxacin], the MIC was found to be 0.097 µg/mL (≈ 0.293 µM) in experiment [1], 0.78 µg/mL (≈ 2.35 µM) in experiment [2] and 0.78 µg/mL (≈ 2.35 µM) in experiment [3].
